Library screen at single concentrations

Mtb cholesterol medium: 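Phenotypic screen: M. tuberculosis growth, cholesterol and DPPC medium, 4 days; the read-out is not stated. Tested at 50 µM. Higher reads as more growth inhibition (inferred: compounds with an IC50 in retests scored well above the rest). Size under these conditions: about 69,000 compounds, about 370 of them at 50% or above in at least one test.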
Mtb glucose medium: 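Growth of Mycobacterium tuberculosis over 3 days (7H9 medium with glucose and tyloxapol); the read-out is not stated. Compounds at 50 µM. The record gives no direction; compounds that gave an IC50 in retests scored well above the rest, so higher reads as more growth inhibition. Of about 69,000 compounds tested this way, about 760 (1.1%) reached 50% or more in at least one test.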

Results are given as percent effect. The controls that fix the scale are not given in the record; negative values are as filed. The compounds are a random part of those screened. Two or more numbers in one place are separate tests of the same structure; such repeats can differ widely.

For CN(C)c1ccccc1C(=O)N1C[C@@H](CN2CCOCC2)[C@@H](CO)C1 the result was Mtb cholesterol medium: 4.479%; Mtb glucose medium: 8.335%. With CCCN1CCN(C(=O)c2cccnc2)CC1 the screen gave Mtb cholesterol medium: -4.283%; Mtb glucose medium: -1.385%. For O=C(O)C(F)(F)F.[H][C@]12CCC[C@@]1(COCc1csc(C)n1)CN(CC1CCOCC1)C2 the result was Mtb cholesterol medium: -8.432%; Mtb glucose medium: 13.73%. COc1ccccc1C(=O)N1Cc2cc(C)ccc2OCC1CN(C)C.Cl (stereo not given) read Mtb cholesterol medium: -17.94%; Mtb glucose medium: -13.81%. Cc1cnc(CN(C)C2CCN(CCCc3ccccc3)C2)o1 (stereo not given) read Mtb cholesterol medium: -20.46%; Mtb glucose medium: -43.06%.

Result for CC(C)N(C)S(=O)(=O)c1ccc2c(c1)CCN(C(=O)c1cnccn1)C2 was Mtb cholesterol medium: 15.38%; Mtb glucose medium: -14.65%. With CCOCC(=O)N1CCC[C@]2(C[C@@H](OCc3ccncc3)CO2)C1 the screen gave Mtb cholesterol medium: 9.29%; Mtb glucose medium: 0.863% and 11.42%. For CN(C)CC(=O)N1CCC2(CCN(Cc3ccccn3)C2=O)C1 (stereo not given) the result was Mtb cholesterol medium: -19.05%; Mtb glucose medium: -12.8%. Result for CN1CCCN(CC(=O)N2CCc3[nH]c(-c4ccccc4)nc3C2)CC1 was Mtb cholesterol medium: 24.31%; Mtb glucose medium: 14.24%. With Cc1nc(CC(=O)N2CCCC(n3ccnc3C(C)C)C2)cs1 (stereo not given) the screen gave Mtb cholesterol medium: -3.451%; Mtb glucose medium: -5.376%.

CN1CCCC(c2ccnc(C(=O)NCC3CC3)c2)C1 (stereo not given) read Mtb cholesterol medium: 17.92%; Mtb glucose medium: 10%. CCNC(=O)[C@@H]1C[C@H](N)CN1Cc1ccc(-c2cc[nH]n2)o1 gave Mtb cholesterol medium: -19.74%; Mtb glucose medium: -47.28%. With O=C(Cn1ccc2ccccc21)NCc1ccc(C(=O)O)cc1 the screen gave Mtb cholesterol medium: -4.918%; Mtb glucose medium: 2.523% and -25.47%. c1cc(-c2ccc3c(c2)C2(CC3)CCN(c3nncs3)CC2)ccn1 read Mtb cholesterol medium: 28.92%; Mtb glucose medium: -15.81%. Result for Cc1ccc2c(c1)C1(CCNCC1)CC2NCCO.Cl.Cl (stereo not given) was Mtb cholesterol medium: -6.616%; Mtb glucose medium: 23.71%.

For COc1cc(CNC(=O)Nc2nncs2)ccc1O the result was Mtb cholesterol medium: -16.32%; Mtb glucose medium: 6.748%. Result for CCc1ncc2c(n1)CN(CC(=O)Nc1nncs1)CC2 was Mtb cholesterol medium: 4.278%; Mtb glucose medium: -17.03%. Result for Cc1ccc(CNCC2Cn3nnc(-c4cccc(F)c4)c3CO2)o1.O=C(O)C(F)(F)F (stereo not given) was Mtb cholesterol medium: 23.22%; Mtb glucose medium: 52.68% and 37.98%. Result for O=C(CCc1nccs1)N1CCN(c2nccs2)CC1 was Mtb cholesterol medium: 5.376%; Mtb glucose medium: 17.25%. CC(C)c1nc(CN2CCCCC2)cs1 read Mtb cholesterol medium: 9.952%; Mtb glucose medium: -4.206%.

With CCN(CC)CCn1cc(NC(=O)CNc2ccccc2OC)cn1 the screen gave Mtb cholesterol medium: -24.4%; Mtb glucose medium: -58.19% and 1.193%. For CC(C(=O)NC(N)=O)N(C)CCCc1cc(-c2ccccc2)no1 (stereo not given) the result was Mtb cholesterol medium: 3.394%; Mtb glucose medium: -9.707%. COc1c(C2CCCN2CC(=O)Nc2cc(C)on2)c(C)nn1C (stereo not given) gave Mtb cholesterol medium: -21.35%; Mtb glucose medium: -60.73% and -9.556%. N#Cc1ccc(NCc2cc3n(n2)CCCN(C(=O)C2CCC2)C3)nc1 read Mtb cholesterol medium: 17.99%; Mtb glucose medium: -7.054%. With Cc1c(Br)cccc1C(=O)NC(C)CN1CCCC1=O (stereo not given) the screen gave Mtb cholesterol medium: -17.41%; Mtb glucose medium: -5.008% and -42.53%.

With Cc1ccc2nc(CSCC(=O)Nc3nnc(C(C)C)s3)cc(=O)n2c1 the screen gave Mtb cholesterol medium: -9.285%; Mtb glucose medium: 18.09%. For Cc1cc(Cl)ccc1C(=O)C1CCCN(Cc2cnc(N(C)C)s2)C1 (stereo not given) the result was Mtb cholesterol medium: 46.58%; Mtb glucose medium: 47.2% and 50.71%. For C/C(Cl)=C/CNC(=O)[C@H]1CC[C@]2(CC1)CN(C)C(=O)c1ccccc1O2 the result was Mtb cholesterol medium: -12.78% and 1.431%; Mtb glucose medium: -26.35%. O=C(O)C(F)(F)F.[H][C@@]12CCN(C(=O)c3ccco3)C[C@]1([H])[C@@H](CN(C)C)OC2 gave Mtb cholesterol medium: -3.475%; Mtb glucose medium: -0.2334%. CCN1CCCC(c2c(-c3ccccc3)ncn2CC(N)=O)C1 (stereo not given) read Mtb cholesterol medium: -36.55%; Mtb glucose medium: -33.12%.

With CC(=O)c1cccc(S(=O)(=O)N2CSCC2C(=O)NCC(F)(F)F)c1 (stereo not given) the screen gave Mtb cholesterol medium: -11.01%; Mtb glucose medium: 4.315%. With CCN(CC)CCn1c(NC(=O)c2scnc2C)nc2ccccc21 the screen gave Mtb cholesterol medium: -0.2505%; Mtb glucose medium: 9.543%. Result for O=C(O)C(F)(F)F.[H][C@@]12CN(CC)C[C@]1(C(=O)N(C)C)CCC21CCN(C(C)=O)CC1 was Mtb cholesterol medium: -1.645%; Mtb glucose medium: -11.49%. With CC(C)S(=O)(=O)Cc1cccc(NC(=O)c2ccc[nH]2)c1 the screen gave Mtb cholesterol medium: 1.813%; Mtb glucose medium: -16.14%. COc1ccc(COCC(O)CN2CCC(c3ccn[nH]3)CC2)cc1 (stereo not given) gave Mtb cholesterol medium: -19.76%; Mtb glucose medium: -16.8%.

For O=C(O)C(F)(F)F.[H][C@]12CCC(=O)N(c3cccnc3)[C@@]1([H])CCN2C(=O)CC1CC1 the result was Mtb cholesterol medium: -27.14%; Mtb glucose medium: -18.95%. CC(C)(C)CCN1CCN(c2snc(Cl)c2C#N)CC1 read Mtb cholesterol medium: 20.49%; Mtb glucose medium: 35.39%. For Cc1cc(C2CCCN2Cc2nc3ccccc3o2)on1 (stereo not given) the result was Mtb cholesterol medium: -11.07%; Mtb glucose medium: -30.97%. For CN1Cc2ccccc2CC2(CCN(CCO)CC2)C1=O.O=C(O)C(F)(F)F the result was Mtb cholesterol medium: -23.34%; Mtb glucose medium: -53.54%.

Repeated from the top, 4 entries:

compound,Mtb cholesterol medium,Mtb glucose medium
CN(C)c1ccccc1C(=O)N1C[C@@H](CN2CCOCC2)[C@@H](CO)C1,4.479,8.335
CCCN1CCN(C(=O)c2cccnc2)CC1,-4.283,-1.385
O=C(O)C(F)(F)F.[H][C@]12CCC[C@@]1(COCc1csc(C)n1)CN(CC1CCOCC1)C2,-8.432,13.73
COc1ccccc1C(=O)N1Cc2cc(C)ccc2OCC1CN(C)C.Cl (stereo not given),-17.94,-13.81

Measurements from “University of Dundee, Small-Polar-MMV Screening Library” (2021), ChEMBL document CHEMBL3988442.